Test results from the supplement of paper PMC10849652.
This is one part of the list.

Chains of the proteins cited; added tags and fusions are not shown. Lines headed by an entry give the natural chain unless they say otherwise; changes in a name come on top.
UniProt Q03154: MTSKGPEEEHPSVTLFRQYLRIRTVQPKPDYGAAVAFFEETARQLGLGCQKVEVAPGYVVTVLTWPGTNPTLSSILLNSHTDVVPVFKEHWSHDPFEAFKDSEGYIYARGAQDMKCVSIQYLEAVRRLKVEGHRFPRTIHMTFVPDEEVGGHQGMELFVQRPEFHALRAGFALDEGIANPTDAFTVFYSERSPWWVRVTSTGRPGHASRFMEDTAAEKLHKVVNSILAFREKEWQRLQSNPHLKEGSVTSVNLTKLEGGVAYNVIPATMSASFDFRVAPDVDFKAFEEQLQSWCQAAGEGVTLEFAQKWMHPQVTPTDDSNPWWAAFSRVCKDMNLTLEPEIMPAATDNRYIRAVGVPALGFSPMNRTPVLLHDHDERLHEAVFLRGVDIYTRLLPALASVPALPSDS
UniProt O43488: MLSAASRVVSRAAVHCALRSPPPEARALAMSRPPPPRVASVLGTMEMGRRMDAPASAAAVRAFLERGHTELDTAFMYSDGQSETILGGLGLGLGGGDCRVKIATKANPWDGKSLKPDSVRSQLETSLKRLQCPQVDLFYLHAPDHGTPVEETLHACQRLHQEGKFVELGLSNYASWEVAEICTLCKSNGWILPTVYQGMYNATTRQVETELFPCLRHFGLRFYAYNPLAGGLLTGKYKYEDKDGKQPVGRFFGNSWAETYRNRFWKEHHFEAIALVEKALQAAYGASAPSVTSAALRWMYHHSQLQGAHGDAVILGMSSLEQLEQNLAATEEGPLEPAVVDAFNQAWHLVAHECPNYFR
UniProt Q96HN2, whole entry, looked up: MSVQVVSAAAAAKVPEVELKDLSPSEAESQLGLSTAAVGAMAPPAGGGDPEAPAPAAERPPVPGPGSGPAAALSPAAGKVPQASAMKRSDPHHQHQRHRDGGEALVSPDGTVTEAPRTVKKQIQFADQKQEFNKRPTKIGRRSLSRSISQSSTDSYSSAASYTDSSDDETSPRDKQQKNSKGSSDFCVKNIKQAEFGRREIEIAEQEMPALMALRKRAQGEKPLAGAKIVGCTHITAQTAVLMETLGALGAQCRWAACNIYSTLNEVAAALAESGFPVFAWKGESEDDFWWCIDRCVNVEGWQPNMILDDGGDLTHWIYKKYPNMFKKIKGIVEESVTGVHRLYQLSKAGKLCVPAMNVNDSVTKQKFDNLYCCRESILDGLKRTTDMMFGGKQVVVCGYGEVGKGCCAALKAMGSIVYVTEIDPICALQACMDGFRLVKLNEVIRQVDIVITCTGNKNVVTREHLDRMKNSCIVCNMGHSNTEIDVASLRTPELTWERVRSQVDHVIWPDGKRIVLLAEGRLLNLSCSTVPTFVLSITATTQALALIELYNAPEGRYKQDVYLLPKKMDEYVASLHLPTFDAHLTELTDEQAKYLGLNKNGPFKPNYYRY
UniProt Q99943: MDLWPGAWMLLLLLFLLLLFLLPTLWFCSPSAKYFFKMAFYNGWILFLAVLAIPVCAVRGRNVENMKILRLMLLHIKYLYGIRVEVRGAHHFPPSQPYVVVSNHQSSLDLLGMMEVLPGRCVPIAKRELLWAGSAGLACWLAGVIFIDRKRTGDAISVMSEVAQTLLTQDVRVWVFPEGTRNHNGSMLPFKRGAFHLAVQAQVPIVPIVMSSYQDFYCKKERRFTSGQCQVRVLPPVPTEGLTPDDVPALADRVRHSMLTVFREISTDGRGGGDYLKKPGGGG
UniProt Q7Z6V5: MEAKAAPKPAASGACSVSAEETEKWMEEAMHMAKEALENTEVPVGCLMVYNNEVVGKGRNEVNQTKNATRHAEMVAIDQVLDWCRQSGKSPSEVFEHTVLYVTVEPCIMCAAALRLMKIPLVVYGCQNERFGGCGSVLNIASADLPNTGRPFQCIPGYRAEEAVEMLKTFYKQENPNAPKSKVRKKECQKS
UniProt Q9NR19, whole entry, looked up: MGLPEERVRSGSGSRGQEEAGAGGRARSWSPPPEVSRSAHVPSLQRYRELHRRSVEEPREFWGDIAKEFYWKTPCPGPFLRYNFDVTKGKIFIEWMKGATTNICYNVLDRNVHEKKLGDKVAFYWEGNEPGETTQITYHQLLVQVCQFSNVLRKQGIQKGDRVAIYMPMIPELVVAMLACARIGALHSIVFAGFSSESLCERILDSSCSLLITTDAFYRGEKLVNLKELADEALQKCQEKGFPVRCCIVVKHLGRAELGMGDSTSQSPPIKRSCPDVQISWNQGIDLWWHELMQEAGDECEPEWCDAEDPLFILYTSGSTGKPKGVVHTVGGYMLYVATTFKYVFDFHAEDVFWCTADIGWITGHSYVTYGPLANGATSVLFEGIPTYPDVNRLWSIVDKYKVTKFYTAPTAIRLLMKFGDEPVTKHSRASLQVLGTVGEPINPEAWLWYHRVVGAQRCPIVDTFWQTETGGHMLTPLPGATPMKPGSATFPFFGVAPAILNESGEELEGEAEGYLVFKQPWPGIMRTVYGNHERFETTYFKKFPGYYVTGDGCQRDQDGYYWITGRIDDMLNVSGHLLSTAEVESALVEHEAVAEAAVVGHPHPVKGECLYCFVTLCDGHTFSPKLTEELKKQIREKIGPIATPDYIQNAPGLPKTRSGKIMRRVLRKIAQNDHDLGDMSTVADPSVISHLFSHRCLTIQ
UniProt P52895: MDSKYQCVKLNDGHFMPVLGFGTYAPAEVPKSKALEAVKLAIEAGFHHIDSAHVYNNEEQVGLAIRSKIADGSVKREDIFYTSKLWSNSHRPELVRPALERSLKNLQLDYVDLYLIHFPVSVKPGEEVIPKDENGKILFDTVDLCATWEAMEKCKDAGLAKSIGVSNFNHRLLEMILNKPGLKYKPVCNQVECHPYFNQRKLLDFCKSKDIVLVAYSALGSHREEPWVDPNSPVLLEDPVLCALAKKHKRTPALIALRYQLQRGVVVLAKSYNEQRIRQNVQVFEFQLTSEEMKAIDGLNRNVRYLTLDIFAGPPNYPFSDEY
UniProt P27144: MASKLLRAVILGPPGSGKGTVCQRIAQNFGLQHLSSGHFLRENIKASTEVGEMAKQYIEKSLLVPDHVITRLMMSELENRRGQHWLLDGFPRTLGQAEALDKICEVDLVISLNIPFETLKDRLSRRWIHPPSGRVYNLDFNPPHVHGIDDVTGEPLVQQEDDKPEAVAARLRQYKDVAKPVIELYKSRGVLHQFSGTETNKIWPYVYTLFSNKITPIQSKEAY
UniProt O43865, whole entry, looked up: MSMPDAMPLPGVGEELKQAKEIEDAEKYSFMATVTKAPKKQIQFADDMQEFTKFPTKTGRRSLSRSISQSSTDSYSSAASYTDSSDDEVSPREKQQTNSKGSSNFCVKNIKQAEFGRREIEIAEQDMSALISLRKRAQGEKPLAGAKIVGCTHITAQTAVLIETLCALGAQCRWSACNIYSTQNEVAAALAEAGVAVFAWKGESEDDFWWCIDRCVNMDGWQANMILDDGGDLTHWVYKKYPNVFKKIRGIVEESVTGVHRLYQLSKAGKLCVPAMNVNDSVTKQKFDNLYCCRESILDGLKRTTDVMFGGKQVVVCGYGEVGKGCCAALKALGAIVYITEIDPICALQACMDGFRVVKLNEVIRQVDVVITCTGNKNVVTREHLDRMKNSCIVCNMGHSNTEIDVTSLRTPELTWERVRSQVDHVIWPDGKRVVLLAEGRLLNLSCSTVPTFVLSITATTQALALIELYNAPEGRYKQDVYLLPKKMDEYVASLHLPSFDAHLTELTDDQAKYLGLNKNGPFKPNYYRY
UniProt Q96P47: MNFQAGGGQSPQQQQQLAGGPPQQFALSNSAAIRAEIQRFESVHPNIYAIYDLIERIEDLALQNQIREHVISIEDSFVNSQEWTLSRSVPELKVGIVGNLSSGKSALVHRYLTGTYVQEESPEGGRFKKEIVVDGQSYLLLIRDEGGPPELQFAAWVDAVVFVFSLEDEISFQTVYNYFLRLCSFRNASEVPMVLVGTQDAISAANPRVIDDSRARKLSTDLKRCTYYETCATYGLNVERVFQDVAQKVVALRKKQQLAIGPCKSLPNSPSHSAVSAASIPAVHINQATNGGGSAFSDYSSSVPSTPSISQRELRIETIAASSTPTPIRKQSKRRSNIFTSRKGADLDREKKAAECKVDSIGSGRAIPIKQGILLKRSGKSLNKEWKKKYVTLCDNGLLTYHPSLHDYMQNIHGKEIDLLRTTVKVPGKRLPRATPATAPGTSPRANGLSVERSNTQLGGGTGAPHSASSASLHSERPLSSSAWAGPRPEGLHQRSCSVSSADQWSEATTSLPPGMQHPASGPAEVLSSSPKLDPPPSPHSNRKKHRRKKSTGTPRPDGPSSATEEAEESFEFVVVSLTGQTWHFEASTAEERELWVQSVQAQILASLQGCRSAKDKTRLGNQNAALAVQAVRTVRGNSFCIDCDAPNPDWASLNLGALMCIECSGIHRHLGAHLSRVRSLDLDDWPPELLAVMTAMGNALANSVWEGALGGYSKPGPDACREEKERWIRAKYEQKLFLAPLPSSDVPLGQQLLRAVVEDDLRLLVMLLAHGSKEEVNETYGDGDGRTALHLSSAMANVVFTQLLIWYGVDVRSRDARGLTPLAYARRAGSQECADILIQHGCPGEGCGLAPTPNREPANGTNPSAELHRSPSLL
UniProt P24666: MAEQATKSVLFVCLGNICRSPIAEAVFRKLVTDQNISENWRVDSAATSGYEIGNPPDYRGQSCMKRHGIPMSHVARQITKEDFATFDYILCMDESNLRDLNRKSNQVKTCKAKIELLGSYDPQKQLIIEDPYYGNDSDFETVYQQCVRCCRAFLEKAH
UniProt Q15067: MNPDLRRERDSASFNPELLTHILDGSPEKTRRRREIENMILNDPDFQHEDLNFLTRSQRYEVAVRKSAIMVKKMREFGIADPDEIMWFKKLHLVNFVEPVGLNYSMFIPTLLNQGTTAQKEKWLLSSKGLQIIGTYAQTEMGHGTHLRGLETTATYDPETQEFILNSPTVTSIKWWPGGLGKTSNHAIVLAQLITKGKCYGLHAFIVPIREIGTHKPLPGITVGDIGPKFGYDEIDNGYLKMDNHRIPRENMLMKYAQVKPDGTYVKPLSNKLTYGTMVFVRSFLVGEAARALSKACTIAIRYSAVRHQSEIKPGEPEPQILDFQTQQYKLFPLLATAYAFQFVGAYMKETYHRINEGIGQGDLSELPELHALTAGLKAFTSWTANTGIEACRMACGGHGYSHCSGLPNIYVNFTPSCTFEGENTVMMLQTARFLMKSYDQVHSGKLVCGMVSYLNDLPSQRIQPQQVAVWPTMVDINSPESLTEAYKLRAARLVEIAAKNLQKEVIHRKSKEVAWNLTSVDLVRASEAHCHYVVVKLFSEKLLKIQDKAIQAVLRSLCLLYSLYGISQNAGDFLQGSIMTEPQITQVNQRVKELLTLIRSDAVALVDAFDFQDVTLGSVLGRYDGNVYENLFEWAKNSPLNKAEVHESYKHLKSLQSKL
UniProt P55263: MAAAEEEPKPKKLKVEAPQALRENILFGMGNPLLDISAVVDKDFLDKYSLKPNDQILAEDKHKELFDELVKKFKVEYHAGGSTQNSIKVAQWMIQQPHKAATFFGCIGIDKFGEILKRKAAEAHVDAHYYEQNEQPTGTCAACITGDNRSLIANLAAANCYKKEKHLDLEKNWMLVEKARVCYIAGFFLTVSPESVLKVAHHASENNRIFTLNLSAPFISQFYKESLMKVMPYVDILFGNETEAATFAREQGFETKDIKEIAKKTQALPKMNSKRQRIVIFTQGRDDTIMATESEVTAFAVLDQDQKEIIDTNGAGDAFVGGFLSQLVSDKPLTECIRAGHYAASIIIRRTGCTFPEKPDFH
UniProt Q4G176: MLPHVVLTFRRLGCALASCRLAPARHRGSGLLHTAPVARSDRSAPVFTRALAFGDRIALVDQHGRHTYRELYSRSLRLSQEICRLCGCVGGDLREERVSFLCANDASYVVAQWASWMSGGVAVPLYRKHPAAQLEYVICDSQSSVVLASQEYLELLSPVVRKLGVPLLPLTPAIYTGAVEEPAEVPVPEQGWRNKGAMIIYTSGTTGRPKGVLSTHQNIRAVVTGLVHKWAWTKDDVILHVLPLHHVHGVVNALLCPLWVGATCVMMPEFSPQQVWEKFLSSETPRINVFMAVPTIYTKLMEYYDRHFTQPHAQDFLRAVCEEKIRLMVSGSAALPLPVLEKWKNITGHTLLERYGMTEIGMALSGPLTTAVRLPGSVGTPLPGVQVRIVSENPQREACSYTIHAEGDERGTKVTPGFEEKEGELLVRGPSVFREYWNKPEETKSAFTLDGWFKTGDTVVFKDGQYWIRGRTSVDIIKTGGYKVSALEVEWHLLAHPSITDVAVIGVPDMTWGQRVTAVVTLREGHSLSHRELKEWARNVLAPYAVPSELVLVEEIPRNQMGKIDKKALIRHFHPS

What was measured:
Assay in all cases: log2 fold change, soluble protein after heating vs DMSO (PISA); higher = thermal stabilisation; K562 lysate, 10 uM; active = over 0.2 and 3.5 SD of the protein, either way, in both replicates (recomputed)
alvocidib = compound: CN1CC[C@H](c2c(O)cc(O)c3c(=O)cc(-c4ccccc4Cl)oc23)[C@H](O)C1 [alvocidib]
Summary of the method: (§1)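 Quantification was by TMTpro 16plex LC-MS/MS with equalised channel sums, applied to the supernatant after 21,000xg for 90 min. Samples were crude K562 extract at 1 mg/mL protein in PBS pH 7.4 with 1 mM MgCl2, treated with 10 μM compound for 30 min, heated for 3 min across 48°C-58°C, pooled and brought to 0.5% NP-40 at 4°C. Values are log-two fold changes in thermal stability relative to solvent controls, from duplicates.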

Tubastatin A = compound: CN1CCc2c(c3ccccc3n2Cc2ccc(C(=O)NO)cc2)C1 [Tubastatin A]
Summary of the method: as §1

[1] = compound: CNC(=O)C1=CC=CC=C1NC2=NC(=NC=C2Cl)NC3=C(C=C(C=C3)N4CCOCC4)OC
Summary of the method: as §1

defactinib = compound: CNC(=O)c1ccc(Nc2ncc(C(F)(F)F)c(NCc3nccnc3N(C)S(C)(=O)=O)n2)cc1 [defactinib]
Summary of the method: as §1

[2] = compound: CNc1nc(-c2ccc3c(N)n[nH]c3c2)cc(N2C[C@@H](C(=O)NC3CCCCC3)CC[C@H]2C)n1
Summary of the method: as §1

encorafenib = compound: COC(=O)N[C@@H](C)CNc1nccc(-c2cn(C(C)C)nc2-c2cc(Cl)cc(NS(C)(=O)=O)c2F)n1 [encorafenib]
Summary of the method: as §1

[3] = compound: COC(=O)[C@H](CCSC)NC(=O)C1=C(C=C(C=C1)NC[C@H](CS)N)C2=CC=CC=C2
Summary of the method: as §1

alisertib = compound: COc1cc(Nc2ncc3c(n2)-c2ccc(Cl)cc2C(c2c(F)cccc2OC)=NC3)ccc1C(=O)O [alisertib]
Summary of the method: as §1

[4] = compound: COc1cc2nc(-c3cc(F)ccc3O)nc(N[C@@H]3CNC[C@H]3C(C)(C)O)c2cc1OC
Summary of the method: as §1

gefitinib = compound: COc1cc2ncnc(Nc3ccc(F)c(Cl)c3)c2cc1OCCCN1CCOCC1 [gefitinib]
Summary of the method: as §1

Row | Target | log2 fold change (alvocidib) | log2 fold change (Tubastatin A) | log2 fold change [1] | log2 fold change (defactinib) | log2 fold change [2] | log2 fold change (encorafenib) | log2 fold change [3] | log2 fold change (alisertib) | log2 fold change [4] | log2 fold change (gefitinib)
1 | ACTR2 (UniProt P61160) | inactive: 0.045 | inactive: 0.01 | inactive: -0.013 | inactive: -0.004 | inactive: 0.025 | inactive: -0.019 | inactive: -0.008 | inactive: 0.008 | inactive: -0.003 | inactive: 0.01
2 | ACY1 (UniProt Q03154) | inactive: 0.011 | inactive: 0.01 | inactive: 0.001 | inactive: 0.022 | inactive: -0.054 | inactive: 0.01 | inactive: -0.043 | inactive: 0 | inactive: -0.014 | inactive: -0.027
3 | AKR7A2 (UniProt O43488) | inactive: 0.014 | inactive: 0.002 | inactive: 0.041 | inactive: -0.01 | inactive: 0.022 | inactive: -0.041 | inactive: 0.027 | inactive: -0.014 | inactive: -0.002 | inactive: -0.05
4 | ACTA1 (UniProt P68133) | inactive: 0.009 | inactive: -0.023 | inactive: -0.015 | inactive: -0.003 | inactive: 0.004 | inactive: -0.003 | inactive: 0.04 | inactive: 0.017 | inactive: -0.015 | inactive: -0.033
5 | ADSS1 (UniProt Q8N142) | inactive: -0.041 | inactive: 0.042 | inactive: 0.016 | inactive: -0.083 | inactive: -0.031 | inactive: 0.012 | inactive: -0.019 | inactive: 0.004 | inactive: -0.053 | inactive: 0.013
6 | AGO4 (UniProt Q9HCK5) | inactive: -0.013 | inactive: -0.003 | inactive: 0.003 | inactive: -0.027 | active: -0.214 | inactive: 0.025 | inactive: -0.092 | inactive: -0.008 | inactive: 0.037 | inactive: -0.015
7 | AKAP12 (UniProt Q02952) | inactive: -0.134 | inactive: 0.104 | inactive: 0.089 | inactive: -0.024 | inactive: -0.059 | inactive: -0.085 | inactive: -0.081 | inactive: 0.053 | inactive: 0.043 | inactive: 0.066
8 | ADAMTS5 (UniProt Q9UNA0) | inactive: -0.33 | inactive: 0.149 | inactive: 0.105 | inactive: -0.052 | inactive: 0.278 | inactive: -0.134 | inactive: -0.012 | inactive: 0.073 | inactive: 0.109 | inactive: -0.093
9 | AHCYL2 (UniProt Q96HN2) | inactive: -0.05 | inactive: -0.031 | inactive: 0.028 | inactive: 0.016 | inactive: 0.144 | inactive: -0.004 | inactive: -0.05 | inactive: -0.059 | inactive: 0.024 | inactive: -0.026
10 | ADPRHL2 (UniProt Q9NX46) | inactive: 0.005 | inactive: 0.071 | inactive: 0.025 | inactive: -0.016 | inactive: 0.05 | inactive: -0.051 | inactive: 0.017 | inactive: 0.046 | inactive: 0.005 | inactive: 0.005
11 | AGPAT1 (UniProt Q99943) | inactive: -0.002 | inactive: -0.015 | inactive: 0.052 | inactive: -0.007 | inactive: -0.033 | inactive: 0.075 | inactive: -0.016 | inactive: -0.015 | inactive: -0.232 | inactive: 0.028
12 | ADAT2 (UniProt Q7Z6V5) | inactive: -0.037 | inactive: -0.01 | inactive: 0.013 | inactive: 0.012 | inactive: 0.031 | inactive: -0.062 | inactive: -0.056 | inactive: 0.045 | inactive: -0.026 | inactive: 0.03
13 | AKAP9 (UniProt Q99996) | inactive: -0.015 | inactive: -0.04 | inactive: -0.019 | inactive: -0.063 | inactive: 0.018 | inactive: 0.03 | inactive: 0.031 | inactive: 0.003 | inactive: 0.032 | inactive: 0.015
14 | ACSS2 isoform 2 (UniProt Q9NR19) | inactive: 0.046 | inactive: -0.061 | inactive: 0.002 | inactive: 0.003 | inactive: -0.052 | inactive: -0.027 | inactive: 0.027 | inactive: -0.027 | inactive: 0.01 | inactive: 0.003
15 | AKR1C2 (UniProt P52895) | inactive: -0.06 | inactive: 0.061 | inactive: -0.021 | inactive: -0.05 | inactive: -0.151 | inactive: -0.012 | inactive: 0.018 | inactive: 0.002 | inactive: 0.004 | inactive: -0.082
16 | ADA (UniProt P00813) | inactive: -0.006 | inactive: 0.077 | inactive: -0.009 | inactive: -0.022 | inactive: 0.015 | inactive: 0.015 | inactive: -0.001 | inactive: -0.019 | inactive: 0.008 | inactive: 0.045
17 | AK2 (UniProt P54819) | inactive: -0.003 | inactive: 0.05 | inactive: -0.019 | inactive: 0.016 | inactive: 0.033 | inactive: -0.025 | inactive: -0.018 | inactive: 0.008 | inactive: -0.025 | inactive: 0.019
18 | AFF4 (UniProt Q9UHB7) | inactive: -0.235 | inactive: -0.086 | inactive: -0.046 | inactive: 0.077 | inactive: 0.018 | inactive: 0.011 | inactive: -0.027 | inactive: -0.022 | inactive: 0.015 | inactive: 0.013
19 | ADAT3 (UniProt Q96EY9) | inactive: -0.011 | inactive: -0.042 | inactive: 0 | inactive: 0.027 | inactive: 0.006 | inactive: -0.003 | inactive: -0.065 | inactive: -0.012 | inactive: -0.019 | inactive: -0.021
20 | AK4 (UniProt P27144) | inactive: 0.025 | inactive: 0.036 | inactive: -0.008 | inactive: 0.003 | inactive: 0.009 | inactive: 0.006 | inactive: -0.07 | inactive: 0.026 | inactive: -0.034 | inactive: -0.043
21 | ADAM9 (UniProt Q13443) | inactive: -0.013 | inactive: 0.023 | inactive: -0.001 | inactive: 0.055 | inactive: -0.032 | inactive: 0.022 | inactive: -0.004 | inactive: 0.011 | inactive: -0.059 | inactive: -0.018
22 | ACP2 (UniProt P11117) | inactive: -0.027 | inactive: 0.015 | inactive: 0.051 | inactive: 0.023 | inactive: 0 | inactive: 0.058 | inactive: -0.037 | inactive: -0.019 | inactive: 0.055 | inactive: 0.001
23 | AKNA (UniProt Q7Z591) | inactive: -0.099 | inactive: -0.146 | inactive: 0.219 | inactive: 0.098 | inactive: 0.016 | inactive: 0.127 | inactive: 0.187 | inactive: 0.011 | inactive: 0.057 | inactive: 0.104
24 | AHCYL1 (UniProt O43865) | inactive: 0.025 | inactive: -0.096 | inactive: 0.051 | inactive: 0.06 | inactive: 0.037 | inactive: 0.01 | inactive: 0.009 | inactive: -0.041 | inactive: -0.003 | inactive: -0.012
25 | AGAP3 isoform 4 (UniProt Q96P47) | inactive: -0.005 | inactive: -0.017 | inactive: 0.044 | inactive: -0.02 | inactive: -0.026 | inactive: 0.038 | inactive: 0.025 | inactive: -0.005 | inactive: -0.001 | inactive: 0.026
26 | ACP1 isoform 2 (UniProt P24666) | inactive: 0.018 | inactive: -0.049 | inactive: 0.04 | inactive: 0.064 | inactive: 0.016 | inactive: -0.067 | inactive: -0.011 | inactive: 0.015 | inactive: 0.023 | inactive: -0.016
27 | ACOX1 isoform 2 (UniProt Q15067) | inactive: -0.049 | inactive: 0.041 | inactive: 0.012 | inactive: 0.012 | inactive: 0.017 | inactive: -0.015 | active: -0.255 | inactive: 0 | inactive: 0.01 | inactive: 0.018
28 | ADK (UniProt P55263) | inactive: 0.246 | inactive: -0.025 | inactive: 0.178 | inactive: 0.026 | inactive: 0 | inactive: -0.048 | inactive: 0.068 | inactive: -0.063 | inactive: -0.015 | inactive: 0.158
29 | ACSF3 (UniProt Q4G176) | inactive: -0.025 | inactive: -0.037 | inactive: 0.027 | inactive: 0.035 | inactive: -0.013 | inactive: -0.052 | inactive: -0.044 | inactive: 0.014 | inactive: -0.023 | inactive: 0.052
30 | ACTR10 (UniProt Q9NZ32) | inactive: -0.041 | inactive: 0.003 | inactive: 0.012 | inactive: -0.033 | inactive: 0.014 | inactive: 0.024 | inactive: -0.04 | inactive: 0.01 | inactive: 0 | inactive: 0.082

Some entries already given, showing only log2 fold change (encorafenib).
Row,Target,log2 fold change (encorafenib)
11,AGPAT1 (UniProt Q99943),inactive: 0.075
12,ADAT2 (UniProt Q7Z6V5),inactive: -0.062
